According to paper PMC4223716:
These are yes or no findings as the source states them, for the method shown. In cells and extracts the contact can be indirect. Some results given as binding are weak or reduced against the parent protein; the word gives no strength.

Biological target: T1, vascular endothelial cadherin (human (endogenous in HUVEC)), P33151
T1 chain: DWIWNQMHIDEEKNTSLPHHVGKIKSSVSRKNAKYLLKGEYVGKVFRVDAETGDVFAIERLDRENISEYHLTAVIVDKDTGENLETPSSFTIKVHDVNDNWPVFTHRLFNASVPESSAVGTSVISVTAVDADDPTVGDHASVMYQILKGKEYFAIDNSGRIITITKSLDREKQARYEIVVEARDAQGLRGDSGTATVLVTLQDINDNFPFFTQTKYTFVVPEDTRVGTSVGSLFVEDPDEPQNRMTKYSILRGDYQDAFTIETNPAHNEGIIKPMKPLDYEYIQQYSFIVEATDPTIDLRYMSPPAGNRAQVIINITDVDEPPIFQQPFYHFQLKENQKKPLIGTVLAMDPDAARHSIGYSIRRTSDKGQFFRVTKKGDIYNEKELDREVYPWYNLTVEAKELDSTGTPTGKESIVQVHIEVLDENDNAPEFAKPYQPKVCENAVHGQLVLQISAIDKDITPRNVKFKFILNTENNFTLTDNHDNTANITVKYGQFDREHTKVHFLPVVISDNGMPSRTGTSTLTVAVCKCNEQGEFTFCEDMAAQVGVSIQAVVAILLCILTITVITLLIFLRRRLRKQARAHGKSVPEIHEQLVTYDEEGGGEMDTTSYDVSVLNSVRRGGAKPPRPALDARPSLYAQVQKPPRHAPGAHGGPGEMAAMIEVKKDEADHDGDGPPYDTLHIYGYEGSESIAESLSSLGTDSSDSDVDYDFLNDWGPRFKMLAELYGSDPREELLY
Assay: co-IP; VE-cad antibody immunoprecipitation from HUVEC RIPA lysates (overnight at 4°C, protein A-agarose), blot for β-catenin and VE-cad; mIgG as control; cells without high glucose; also cells overexpressing DN-PKC-α, -β or -δ (Figure 3D)
Details: remark: other sources report otherwise

B1: β-catenin, P35222 1-781 (protein)
chain: MATQADLMELDMAMEPDRKAAVSHWQQQSYLDSGIHSGATTTAPSLSGKGNPEEEDVDTSQVLYEWEQGFSQSFTQEQVADIDGQYAMTRAQRVRAAMFPETLDEGMQIPSTQFDAAHPTNVQRLAEPSQMLKHAVVNLINYQDDAELATRAIPELTKLLNDEDQVVVNKAAVMVHQLSKKEASRHAIMRSPQMVSAIVRTMQNTNDVETARCTAGTLHNLSHHREGLLAIFKSGGIPALVKMLGSPVDSVLFYAITTLHNLLLHQEGAKMAVRLAGGLQKMVALLNKTNVKFLAITTDCLQILAYGNQESKLIILASGGPQALVNIMRTYTYEKLLWTTSRVLKVLSVCSSNKPAIVEAGGMQALGLHLTDPSQRLVQNCLWTLRNLSDAATKQEGMEGLLGTLVQLLGSDDINVVTCAAGILSNLTCNNYKNKMMVCQVGGIEALVRTVLRAGDREDITEPAICALRHLTSRHQEAEMAQNAVRLHYGLPVVVKLLHPPSHWPLIKATVGLIRNLALCPANHAPLREQGAIPRLVQLLVRAHQDTQRRTSMGGTQQQFVEGVRMEEIVEGCTGALHILARDVHNRIVIRGLNTIPLFVQLLYSPIENIQRVAAGVLCELAQDKEAAEAIEAEGATAPLTELLHSRNEGVATYAAAVLFRMSEDKPQDYKKRLSVELTSSLFRTEPMAWNETADLGLDIGAQGEPLGYRQDDPSYRSFHSGGYGQDALGMDPMMEHEMGGHHPGADYPVDGLPDLGHAQDLMDGLPPGDSNQLAWFDTDL
  binding: binds
